# Experimental data from the supplement of paper PMC8728848.
# Some of the results follow.
# Legend:
# Experiment in all cases: glycan array binding signal (z-score within array); higher = stronger binding
# Conditions in all cases: glycan notation: IUPAC condensed, linker removed
# [1] = biological target: Gal(b1-4)GlcNAc(b1-2)[Gal(b1-4)GlcNAc(b1-6)]Man(a1-6)[GlcNAc(b1-4)][Gal(b1-4)GlcNAc(b1-2)[Gal(b1-4)GlcNAc(b1-4)]Man(a1-3)]Man(b1-4)GlcNAc(b1-4)[Fuc(a1-6)]GlcNAc
# Method in brief: (§1)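 The binding signal is a Z-score computed within each array and averaged over linkers. Arrays of the same protein sequence at different concentrations or buffers were also averaged together. Data originate from 3228 arrays in the Consortium for Functional Glycomics database, kept only where the protein sequence was available.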
# [2] = biological target: Gal(b1-4)GlcNAc(b1-3)Gal(b1-3)GalNAc
# Method in brief: as §1
# [3] = biological target: Gal(b1-4)GlcNAc(b1-3)Gal(b1-3)GlcNAc
# Method in brief: as §1
# [4] = biological target: Gal(b1-4)GlcNAc(b1-3)Gal(b1-4)Glc
# Method in brief: as §1
# [5] = biological target: Gal(b1-4)GlcNAc(b1-3)Gal(b1-4)GlcNAc
# Method in brief: as §1
# [6] = biological target: Gal(b1-4)GlcNAc(b1-3)Gal(b1-4)GlcNAc(b1-2)Man(a1-3)[Gal(b1-4)GlcNAc(b1-3)Gal(b1-4)GlcNAc(b1-2)Man(a1-6)]Man(b1-4)GlcNAc(b1-4)GlcNAc
# Method in brief: as §1
# [7] = biological target: Gal(b1-4)GlcNAc(b1-3)Gal(b1-4)GlcNAc(b1-2)Man(a1-3)[Gal(b1-4)GlcNAc(b1-3)Gal(b1-4)GlcNAc(b1-2)Man(a1-6)]Man(b1-4)GlcNAc(b1-4)[Fuc(a1-6)]GlcNAc
# Method in brief: as §1
# [8] = biological target: Gal(b1-4)GlcNAc(b1-3)Gal(b1-4)GlcNAc(b1-2)[Gal(b1-4)GlcNAc(b1-3)Gal(b1-4)GlcNAc(b1-6)]Man(a1-6)[Gal(b1-4)GlcNAc(b1-3)Gal(b1-4)GlcNAc(b1-2)Man(a1-3)]Man(b1-4)GlcNAc(b1-4)GlcNAc
# Method in brief: as §1
# [9] = biological target: Gal(b1-4)GlcNAc(b1-3)Gal(b1-4)GlcNAc(b1-2)[Gal(b1-4)GlcNAc(b1-3)Gal(b1-4)GlcNAc(b1-6)]Man(a1-6)[Gal(b1-4)GlcNAc(b1-3)Gal(b1-4)GlcNAc(b1-2)Man(a1-3)]Man(b1-4)GlcNAc(b1-4)[Fuc(a1-6)]GlcNAc
# Method in brief: as §1
# [10] = biological target: Gal(b1-4)GlcNAc(b1-3)Gal(b1-4)GlcNAc(b1-3)Gal(b1-4)GlcNAc
# Method in brief: as §1
# [11] = biological target: Gal(b1-4)GlcNAc(b1-3)Gal(b1-4)GlcNAc(b1-3)Gal(b1-4)GlcNAc(b1-2)Man(a1-3)[Gal(b1-4)GlcNAc(b1-3)Gal(b1-4)GlcNAc(b1-3)Gal(b1-4)GlcNAc(b1-2)Man(a1-6)]Man(b1-4)GlcNAc(b1-4)GlcNAc
# Method in brief: as §1
# [12] = biological target: Gal(b1-4)GlcNAc(b1-3)Gal(b1-4)GlcNAc(b1-3)Gal(b1-4)GlcNAc(b1-2)Man(a1-3)[Gal(b1-4)GlcNAc(b1-3)Gal(b1-4)GlcNAc(b1-3)Gal(b1-4)GlcNAc(b1-2)Man(a1-6)]Man(b1-4)GlcNAc(b1-4)[Fuc(a1-6)]GlcNAc
# Method in brief: as §1
# [13] = biological target: Gal(b1-4)GlcNAc(b1-3)Gal(b1-4)GlcNAc(b1-3)Gal(b1-4)GlcNAc(b1-2)[Gal(b1-4)GlcNAc(b1-3)Gal(b1-4)GlcNAc(b1-3)Gal(b1-4)GlcNAc(b1-6)]Man(a1-6)[Gal(b1-4)GlcNAc(b1-3)Gal(b1-4)GlcNAc(b1-3)Gal(b1-4)GlcNAc(b1-2)Man(a1-3)]Man(b1-4)GlcNAc(b1-4)[Fuc(a1-6)]GlcNAc
# Method in brief: as §1
# [14] = biological target: Gal(b1-4)GlcNAc(b1-3)Gal(b1-4)GlcNAc(b1-3)Gal(b1-4)GlcNAc(b1-3)Gal(b1-4)GlcNAc(b1-2)Man(a1-3)[Gal(b1-4)GlcNAc(b1-3)Gal(b1-4)GlcNAc(b1-3)Gal(b1-4)GlcNAc(b1-3)Gal(b1-4)GlcNAc(b1-2)Man(a1-6)]Man(b1-4)GlcNAc(b1-4)GlcNAc
# Method in brief: as §1
# [15] = biological target: Gal(b1-4)GlcNAc(b1-3)Gal(b1-4)GlcNAc(b1-3)Gal(b1-4)GlcNAc(b1-3)Gal(b1-4)GlcNAc(b1-2)Man(a1-3)[Gal(b1-4)GlcNAc(b1-3)Gal(b1-4)GlcNAc(b1-3)Gal(b1-4)GlcNAc(b1-3)Gal(b1-4)GlcNAc(b1-2)Man(a1-6)]Man(b1-4)GlcNAc(b1-4)[Fuc(a1-6)]GlcNAc
# Method in brief: as §1
# [16] = biological target: Gal(b1-4)GlcNAc(b1-3)Gal(b1-4)GlcNAc(b1-3)Gal(b1-4)GlcNAc(b1-3)Gal(b1-4)GlcNAc(b1-2)[Gal(b1-4)GlcNAc(b1-3)Gal(b1-4)GlcNAc(b1-3)Gal(b1-4)GlcNAc(b1-3)Gal(b1-4)GlcNAc(b1-6)]Man(a1-6)[Gal(b1-4)GlcNAc(b1-3)Gal(b1-4)GlcNAc(b1-3)Gal(b1-4)GlcNAc(b1-3)Gal(b1-4)GlcNAc(b1-2)Man(a1-3)]Man(b1-4)GlcNAc(b1-4)[Fuc(a1-6)]GlcNAc
# Method in brief: as §1
# [17] = biological target: Gal(b1-4)GlcNAc(b1-3)Gal(b1-4)GlcNAc(b1-3)Gal(b1-4)GlcNAc(b1-3)Gal(b1-4)GlcNAc(b1-3)Gal(b1-4)GlcNAc(b1-2)Man(a1-3)[Gal(b1-4)GlcNAc(b1-3)Gal(b1-4)GlcNAc(b1-3)Gal(b1-4)GlcNAc(b1-3)Gal(b1-4)GlcNAc(b1-3)Gal(b1-4)GlcNAc(b1-2)Man(a1-6)]Man(b1-4)GlcNAc(b1-4)GlcNAc
# Method in brief: as §1
# [18] = biological target: Gal(b1-4)GlcNAc(b1-3)Gal(b1-4)GlcNAc(b1-3)Gal(b1-4)GlcNAc(b1-3)Gal(b1-4)GlcNAc(b1-3)Gal(b1-4)GlcNAc(b1-2)Man(a1-3)[Gal(b1-4)GlcNAc(b1-3)Gal(b1-4)GlcNAc(b1-3)Gal(b1-4)GlcNAc(b1-3)Gal(b1-4)GlcNAc(b1-3)Gal(b1-4)GlcNAc(b1-2)Man(a1-6)]Man(b1-4)GlcNAc(b1-4)[Fuc(a1-6)]GlcNAc
# Method in brief: as §1
# [19] = biological target: Gal(b1-4)GlcNAc(b1-3)Gal(b1-4)GlcNAc(b1-3)Gal(b1-4)GlcNAc(b1-3)Gal(b1-4)GlcNAc(b1-3)Gal(b1-4)GlcNAc(b1-2)[Gal(b1-4)GlcNAc(b1-3)Gal(b1-4)GlcNAc(b1-3)Gal(b1-4)GlcNAc(b1-3)Gal(b1-4)GlcNAc(b1-3)Gal(b1-4)GlcNAc(b1-6)]Man(a1-6)[Gal(b1-4)GlcNAc(b1-3)Gal(b1-4)GlcNAc(b1-3)Gal(b1-4)GlcNAc(b1-3)Gal(b1-4)GlcNAc(b1-3)Gal(b1-4)GlcNAc(b1-2)Man(a1-3)]Man(b1-4)GlcNAc(b1-4)[Fuc(a1-6)]GlcNAc
# Method in brief: as §1
# [20] = biological target: Gal(b1-4)GlcNAc(b1-3)Gal(b1-4)GlcNAc(b1-3)Gal(b1-4)GlcNAc(b1-3)Gal(b1-4)GlcNAc(b1-3)Gal(b1-4)GlcNAc(b1-3)Gal(b1-4)GlcNAc(b1-2)Man(a1-3)[Gal(b1-4)GlcNAc(b1-3)Gal(b1-4)GlcNAc(b1-3)Gal(b1-4)GlcNAc(b1-3)Gal(b1-4)GlcNAc(b1-3)Gal(b1-4)GlcNAc(b1-3)Gal(b1-4)GlcNAc(b1-2)Man(a1-6)]Man(b1-4)GlcNAc(b1-4)GlcNAc
# Method in brief: as §1
# [21] = biological target: Gal(b1-4)GlcNAc(b1-3)Gal(b1-4)GlcNAc(b1-3)GalNAc
# Method in brief: as §1
# [22] = biological target: Gal(b1-4)GlcNAc(b1-3)Gal(b1-4)GlcNAc(b1-3)[Gal(b1-4)GlcNAc(b1-3)Gal(b1-4)GlcNAc(b1-6)]GalNAc
# Method in brief: as §1
# [23] = biological target: Gal(b1-4)GlcNAc(b1-3)Gal(b1-4)GlcNAc(b1-6)[Gal(b1-3)]GalNAc
# Method in brief: as §1
binder,measurement,setting,value
Pbx2CASH domain (Cryptococcus neoformans) (protein) GIPGPNRLYRLSGPIIFTAADQEIATYGYPTGSERAVLRVEGRNTATAIQGDCRRCARVSVKNLVVDGNRKKLGRMRDFQLATGLVVLGGNEGQSIQNSWIKNPRGFTAIHIREGDKLQCSGARVEKNEIGPVGEEYDPEKDGDDPEMSPLGRPLADGVSIACRDSFIRDNTFRDNTDAAIVVYCSPGTLIHA,glycan array binding signal (z-score),[1],-0.357
same,glycan array binding signal (z-score),[2],-0.134
same,glycan array binding signal (z-score),[3],-0.242
same,glycan array binding signal (z-score),[4],-0.13
same,glycan array binding signal (z-score),[5],-0.456
same,glycan array binding signal (z-score),[6],3.98
same,glycan array binding signal (z-score),[7],0.897
same,glycan array binding signal (z-score),[8],0.517
same,glycan array binding signal (z-score),[9],0.707
same,glycan array binding signal (z-score),[10],0.457
same,glycan array binding signal (z-score),[11],6.89
same,glycan array binding signal (z-score),[12],0.266
same,glycan array binding signal (z-score),[13],1.24
same,glycan array binding signal (z-score),[14],2.13
same,glycan array binding signal (z-score),[15],-0.076
same,glycan array binding signal (z-score),[16],0.38
same,glycan array binding signal (z-score),[17],-0.271
same,glycan array binding signal (z-score),[18],0.243
same,glycan array binding signal (z-score),[19],0.763
same,glycan array binding signal (z-score),[20],2.39
same,glycan array binding signal (z-score),[21],0.969
same,glycan array binding signal (z-score),[22],1.04
same,glycan array binding signal (z-score),[23],1.71
